# Reference: PubChem BioAssay AID1347076 (National Center for Advancing Translational Sciences (NCATS), 2019)
# In all, about 400,000 compounds went through this assay and about 13,000 (3.2%) were called active. Inconclusive results, whose numbers are uncertain, are shown with a selection of clear calls. The call rests on the fitted dose curve; in most records, active means well fitted cell-killing curve with a large enough effect; inconclusive means small, poorly fitted or top-dose-only effect, or effect the other way; inactive means flat fitted curve, though single readings scatter. Potencies beside an inconclusive call are fits to weak or partial responses and may not hold up.
# Test: qHTS assay for MDR1-selective chemotherapeutics: Primary screen using the drug-selected MDR subline cells KB-V1; further: nearly all actives have a fitted effect of over 60% in size
# Settings: KB-V1 MDR cells viability, CellTiter-Glo, 72 h; series mostly up to 46.1 µM
# Procedure, shortened: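 Drug-selected KB-V1 cells, grown in DMEM lacking phenol red with 10% FBS, receive compound titrations; after three days at 37 degrees C, surviving cell ATP is quantified by CellTiter-Glo luminescence and responses normalized and curve-fitted.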
# Potency means the concentration at half of the fitted maximal effect.
row,Structure (SMILES),Potency
1,NS(=O)(=O)c1ccc(N=Cc2c(O)n(-c3ccccc3)c(=O)[nH]c2=O)cc1,inactive
2,O=[N+]([O-])c1cc(O)c(O)c([N+](=O)[O-])c1,inactive
3,CC(=O)C1(O)CCC2C3CCC4=C(Cl)C(=O)CCC4(C)C3CCC21C (configuration not stated),inactive
4,C[C@H]1[C@H](OC(=O)CCC(=O)NCc2ccc(C(=O)O)cc2)O[C@@H]2O[C@@]3(C)CC[C@H]4[C@H](C)CC[C@@H]1C24OO3,active: 14.6 µM
5,Cc1ccc(Cl)cc1N1CCN(CCN)CC1,"inconclusive: 29.1 µM [cytotoxic, partial curve, poor fit]"
6,NCC(=O)c1cccc([N+](=O)[O-])c1,inactive
7,O=C1NC(=O)N(Cc2ccco2)C(=O)/C1=C/c1ccc(-c2cccc([N+](=O)[O-])c2)o1,inactive
8,Cc1ccc(C)c(NC(=O)CCNC(=O)N2C[C@H]3C[C@@H](C2)c2cccc(=O)n2C3)c1,inactive
9,CC(O)C1C=CC=CC(=O)OC2CC3OC4C5OC5(C)CCC4(COC(=O)C4OC4(C)C(O)CO1)C2(C)C31CO1 (configuration not stated),active: 10.3 µM
10,O=C(c1ccccc1F)c1cn(Cc2ccccc2)c2ccccc12,"inconclusive: 15.8 µM [cytotoxic, single point]"
11,Ic1ccccc1CN[C@@H]1C2CCN(CC2)[C@@H]1C(c1ccccc1)c1ccccc1,active: 16.4 µM
12,c1cc2c(cc1CCNC1C3CC4CC(C3)CC1C4)OCO2 (configuration not stated),active: 20.6 µM
13,CCCCn1c(O)c(C(C)=NC(C)c2ccccc2)c(=O)[nH]c1=O (configuration not stated),"inconclusive: 20.6 µM [cytotoxic, single point]"
14,Cc1cccc(C)c1NC(=O)c1cccn(Cc2ccc3c(c2)OC(F)(F)O3)c1=O,"inconclusive: 18.4 µM [cytotoxic, single point]"
15,Cn1cc(C(=O)N2CCC3(CC2)OCCO3)c2c3ccccc3n(C)c2c1=O,inactive
16,C=Cc1cc(OC)c2c(c1)c(=O)oc1c2cc(OC)c2c(O)ccc(C3OC(C)C(O)C(C)(O)C3O)c21 (configuration not stated),active: 18.4 µM
17,Nc1c(C(=O)Nc2ccc(Cl)cc2)sc2nc3c(cc12)N1CCC3CC1,active: 7.31 µM
18,CC1CN(O)C2CCc3nonc3C12O (configuration not stated),"inconclusive: 32.6 µM [rising, partial curve, poor fit]"
19,CN(CC(=O)Nc1ccccc1-c1ccccc1)C1CCCCC1,"inconclusive: 16.4 µM [cytotoxic, partial curve]"
20,Nc1c2c(nc3ccccc13)CCN(Cc1ccccc1)C2,"inconclusive: 8.2 µM [cytotoxic, partial curve, poor fit]"
21,CN1CCN(Cc2ccccc2Sc2ccccc2)CC1,active: 20.6 µM
22,Cc1ccc(Cn2nnnc2CN2CCC(n3nnc4cc(C(F)(F)F)ccc43)CC2)cc1,"inconclusive: 23.1 µM [cytotoxic, partial curve, poor fit]"
23,C#CCCC[C@@H]1OC(=O)CNC(=O)C([C@@H](C)CC)NC(=O)[C@@H]2CCCN2C(=O)C([C@@H](C)CC)OC(=O)[C@H](Cc2ccccc2)N(C)C(=O)[C@H](C(C)C)NC(=O)C1(C)C (some centres not stated),inactive
24,N#C/C(=C(/O)c1ccc(S(=O)(=O)N(CCCl)CCCl)cc1)c1nc2ccccc2[nH]1,inactive

row,Structure (SMILES),Potency
1,Cc1ccsc1C(=O)C1CCCN(Cc2c(C)nn(C(C)C)c2C)C1 (configuration not stated),inactive
2,C[C@H]1CCC/C=C/C2C[C@H](O)CC2[C@H](O)/C=C/C(=O)O1 (some centres not stated),active: 0.411 µM
3,CCOC(=O)[C@]12Cc3cc4ccccc4cc3[C@H]1N(Cc1ccccc1)C(=O)c1ccccc12,"inconclusive: 23.1 µM [cytotoxic, single point]"
4,CCCCCCn1c(O)c(C=NC2CCN(Cc3ccccc3)CC2)c(=O)[nH]c1=O,"inconclusive: 5.8 µM [cytotoxic, partial curve]"
5,COC(=O)C1=C(c2ccc(S(C)(=O)=O)cc2)C[C@@H]2CC[C@H]1N2C,"inconclusive: 18.4 µM [rising, partial curve, poor fit]"
6,Cc1cc(C)[n+](C2C3CC4CC(C3)CC2C4)o1 (configuration not stated),"inconclusive: 18.4 µM [rising, partial curve]"
7,CCCCCCCSc1cc(OC)c(CCNC)cc1OC,active: 18.4 µM
8,CCOC(=O)c1c(-c2ccc(OC)cc2)oc2ccc(OC(=O)N(C)C)cc12,"inconclusive: 18.4 µM [cytotoxic, single point]"
9,Cc1nn(Cc2ccccc2Cl)c(C)c1C(=O)OCC(=O)N1CC(C)OC(C)C1 (configuration not stated),"inconclusive: 14.6 µM [cytotoxic, partial curve]"
10,Cc1ccc(CN(Cc2ccccc2)C(=S)NCC(=O)N2CCC3(CC2)OCCO3)o1,"inconclusive: 2.59 µM [cytotoxic, full curve]"
11,COc1ccc(OC)c(NC(=O)Cn2cc(C(=O)c3ccccc3)c3ccccc32)c1,"inconclusive: 14.6 µM [cytotoxic, partial curve]"
12,COC(=O)C1=C(c2ccc(F)cc2OCc2ccccc2)C[C@@H]2CC[C@H]1N2C(=O)NCCOc1ccccc1Cl,"inconclusive: 29.1 µM [cytotoxic, single point]"
13,CCCCC1(CN2CCCC2=O)C(=O)NC(=O)NC1=O,inactive
14,c1cc2n(c1)-c1c(ccc3c1OCO3)CNC2c1ccc2c(c1)OCO2 (configuration not stated),active: 18.4 µM
15,O=c1[nH]c(N2CCN(Cc3ccc4c(c3)OCO4)CC2)nc2c1CCC2,inactive
16,Cc1ccc(CN2CCN(Cc3ccccc3F)CC2)cc1,"inconclusive: 23.1 µM [cytotoxic, partial curve, poor fit]"
17,COc1cccc(O)c1CN1CCCC(C(=O)c2ccccc2SC)C1 (configuration not stated),"inconclusive: 16.4 µM [cytotoxic, partial curve]"
18,O=c1[nH]c(=O)n(CCc2ccc(F)cc2)c(O)c1C=NCCCN1CCOCC1,"inconclusive: 16.4 µM [rising, partial curve, poor fit]"
19,CC1=Nc2ccccc2/C1=C/c1c(O)n(C)c(=O)[nH]c1=O,inactive
20,CCC(=Nc1cc(OC)ccc1OC)c1c(O)[nH]c(=O)[nH]c1=O,active: 2.59 µM
21,CC(C)N(C(=O)CCl)c1ccccc1,"inconclusive: 29.1 µM [cytotoxic, single point]"
22,COc1ccc(C2C(C#N)=C(N)Oc3c2c(=O)oc2ccccc32)cc1Cn1cc([N+](=O)[O-])cn1 (configuration not stated),"inconclusive: 5.8 µM [rising, partial curve, poor fit]"
23,O=C1NCN(c2ccccc2)C12CCN(C(c1cccs1)c1nnnn1-c1ccc3c(c1)OCCO3)CC2 (configuration not stated),"inconclusive: 23.1 µM [cytotoxic, single point]"
24,CCCCn1c(O)c(C(CC)=NCCc2ccccc2)c(=O)[nH]c1=O,"inconclusive: 23.1 µM [cytotoxic, single point]"

row,Structure (SMILES),Potency
1,C[C@]12CCC3C(CC[C@H]4C[C@H](O)CC[C@]34C)C1[C@@H](O)C[C@@H]2O (some centres not stated),inactive
2,COC(=O)[C@@H]1C(OC(=O)c2ccccc2)CC2CCC1N2C (some centres not stated),inactive
3,Cc1cccc(NP(=O)(Oc2ccccc2F)Oc2ccccc2F)c1,active: 18.4 µM
4,CC(=O)Nc1ccccc1C(=O)OCC(=O)c1ccc2ccccc2c1,active: 14.6 µM
5,CCCCn1c(N)c(C(=O)OCCOC)c2nc3ccccc3nc21,"inconclusive: 29.1 µM [cytotoxic, single point]"
6,NC(=O)Nc1ccc(C(=O)OCC(=O)Nc2ccc(Cl)cc2C(=O)c2ccccc2)cc1,inactive
7,O=C(c1cccc2ccccc12)C1CCCN(C2CCC2)C1 (configuration not stated),inactive
8,C=CCN1C(=O)NC(=O)/C(=C/c2ccc(OC)c(CSc3ccccn3)c2)C1=O,inactive
9,CC[C@H](C)[C@@H]1NC(=O)CNC(=O)c2csc(n2)[C@H](C(C)(C)O)OC(=O)C(C)(C)[C@H](CCCC(C)(Cl)Cl)OC(=O)c2csc1n2,active: 13 µM
10,CN1CN(c2cccc([N+](=O)[O-])c2)CN=C1N[N+](=O)[O-],inactive
11,COc1cc(CC(=O)N2C[C@H]3C[C@@H](C2)c2cccc(=O)n2C3)cc(OC)c1OC,inactive
12,CCC(=O)c1ccc(OC)c(OC)c1,inactive
13,Cc1nonc1OCCNc1ccc([N+](=O)[O-])c2cccnc12,"inconclusive: 29.1 µM [cytotoxic, single point]"
14,COC(=O)C1=C(c2ccc(-c3ccccc3)c(F)c2)C[C@@H]2CC[C@H]1N2C(=O)NCc1ccc(F)cc1,active: 20.6 µM
15,Cc1ccc(-n2nc(C)cc2NC(=O)COc2cc(C)cc3oc(=O)c4c(c23)CCC4)cc1,active: 2.06 µM
16,CCCCCn1c(N)c(C(=O)NCc2cccs2)c2nc3ccccc3nc21,active: 13 µM
17,Nc1c(C(=O)OC2CCCCC2)c2nc3ccccc3nc2n1CC1CCCO1 (configuration not stated),"inconclusive: 23.1 µM [cytotoxic, partial curve, poor fit]"
18,CCc1ccccc1NC(=O)c1cccn(Cc2ccccc2F)c1=O,inactive
19,O=[N+]([O-])c1ccc(N2CCCC2)cc1N/N=C1\CN2CCC1CC2,active: 20.6 µM
20,COC(=O)C1=C(c2ccc(F)cc2OCc2ccccc2)C[C@@H]2CC[C@H]1N2C(=O)NCc1ccc(Cl)cc1,inactive
21,CCc1cc(=O)oc2cc(OCC(=O)N3C[C@H]4C[C@@H](C3)c3cccc(=O)n3C4)ccc12,"inconclusive: 20.6 µM [rising, single point]"
22,Nc1c(C(=O)NCCc2ccccc2)c2nc3ccccc3nc2n1CCN1CCOCC1,active: 23.1 µM
23,O=P(Nc1cccc(Cl)c1)(Oc1ccccc1)Oc1ccccc1,"inconclusive: 29.1 µM [cytotoxic, single point]"
24,CC(Cc1ccccc1)NCC(=O)Nc1cc(N(C)C)nc2ccccc12 (configuration not stated),"inconclusive: 4.61 µM [cytotoxic, full curve]"

# A few values from the entries so far.
# `Cc1nonc1OCCNc1ccc([N+](=O)[O-])c2cccnc12` | Potency: inconclusive: 29.1 µM [cytotoxic, single point]
# `CC[C@H](C)[C@@H]1NC(=O)CNC(=O)c2csc(n2)[C@H](C(C)(C)O)OC(=O)C(C)(C)[C@H](CCCC(C)(Cl)Cl)OC(=O)c2csc1n2` | Potency: active: 13 µM
# `O=C(c1cccc2ccccc12)C1CCCN(C2CCC2)C1` (configuration not stated) | Potency: inactive
# `CC(Cc1ccccc1)NCC(=O)Nc1cc(N(C)C)nc2ccccc12` (configuration not stated) | Potency: inconclusive: 4.61 µM [cytotoxic, full curve]
